According to publication PMC10831259:
These are yes or no findings as the source states them, for the method shown. Binding seen in cells or lysates may run through a third protein. Some entries that bind do so weakly or less than the wild type. Values belong to the substance of their own block, whether it stands above or below them.

By UniProt entry, the sequences of proteins in these tests, tags left out.
UniProt P09211: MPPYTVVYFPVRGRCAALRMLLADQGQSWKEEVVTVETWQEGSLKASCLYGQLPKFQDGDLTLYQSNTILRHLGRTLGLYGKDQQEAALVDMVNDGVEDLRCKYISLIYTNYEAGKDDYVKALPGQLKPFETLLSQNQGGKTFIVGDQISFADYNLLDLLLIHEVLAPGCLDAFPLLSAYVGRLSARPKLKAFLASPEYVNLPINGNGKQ
UniProt P19157: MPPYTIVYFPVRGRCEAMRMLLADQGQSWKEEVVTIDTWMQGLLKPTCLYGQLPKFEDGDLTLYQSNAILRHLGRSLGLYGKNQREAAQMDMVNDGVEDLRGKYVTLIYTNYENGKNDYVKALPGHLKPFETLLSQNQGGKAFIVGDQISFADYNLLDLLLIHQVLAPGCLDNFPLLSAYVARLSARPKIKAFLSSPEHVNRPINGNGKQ

Key:
[1] = biological target: V5-tagged Kindlin-2 (UniProt Q96AC1); test: co-IP; lysates of HEK293T cells transfected with FLAG-tagged GSTP1 and/or V5-tagged Kindlin-2 (full-length or truncated Kindlin-2 in panel H, extracts 48 h after cotransfection), IP and IB with the indicated antibodies
[2] = biological target: FLAG-tagged GSTP1 (UniProt P09211); test: as above
[3] = biological target: endogenous GSTP1 (human (endogenous in Huh7)) (UniProt P09211); test: co-IP; Huh7 cells, endogenous proteins, IP with anti-Kindlin-2 or anti-GSTP1 antibody and IB
[4] = biological target: T1, Kindlin-2 (mouse (endogenous in liver tissue)) (UniProt Q8CIB5); test: co-IP; liver tissue lysates, immunoprecipitation with the indicated antibodies at 4 °C overnight, immunoblotting; called a pull-down assay in the text
T1 sequence: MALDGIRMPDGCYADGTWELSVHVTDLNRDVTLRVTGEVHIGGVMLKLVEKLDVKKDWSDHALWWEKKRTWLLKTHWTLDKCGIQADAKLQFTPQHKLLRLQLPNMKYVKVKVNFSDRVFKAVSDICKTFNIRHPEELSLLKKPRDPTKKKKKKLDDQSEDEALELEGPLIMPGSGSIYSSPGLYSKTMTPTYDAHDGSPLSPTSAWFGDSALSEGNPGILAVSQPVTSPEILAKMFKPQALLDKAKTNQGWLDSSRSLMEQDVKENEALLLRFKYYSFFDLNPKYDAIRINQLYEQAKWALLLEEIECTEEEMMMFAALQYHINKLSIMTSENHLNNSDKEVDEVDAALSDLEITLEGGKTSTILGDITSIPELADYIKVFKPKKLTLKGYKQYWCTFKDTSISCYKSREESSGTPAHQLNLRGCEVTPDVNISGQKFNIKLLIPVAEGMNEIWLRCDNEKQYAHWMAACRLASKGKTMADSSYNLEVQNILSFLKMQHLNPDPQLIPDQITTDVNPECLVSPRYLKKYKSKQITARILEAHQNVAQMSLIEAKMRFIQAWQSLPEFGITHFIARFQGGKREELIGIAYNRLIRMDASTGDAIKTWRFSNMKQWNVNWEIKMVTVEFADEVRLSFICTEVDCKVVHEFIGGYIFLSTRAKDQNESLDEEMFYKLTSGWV

binding [1]: binds
Substance: FLAG-tagged GSTP1 (from UniProt P09211 1-210)

binding [2]: binds
Substance: V5-tagged Kindlin-2 (from UniProt Q96AC1 1-680)

binding [3]: binds
Substance: endogenous Kindlin-2 (from UniProt Q96AC1 1-680)

binding [4]: binds
Substance: glutathione-S-transferase P1 (from UniProt P19157 1-210)
